Assay results: patent US8177896B2, “Antifouling furan-2-one derivatives” (The Hong Kong University of Science and Technology, priority 2008, dated 2012)

Tests used:
[1] = tested on: Balanus amphitrite larvae; assay: Larval settlement bioassay, barnacle Balanus amphitrite cyprids; assay type: in vivo
Protocol: The nauplii were reared in freshly filtered nature seawater (FSW, 0.45 μm, 32 S salinity) and fed with Chaetoceros gracilis Schutt at 24° C. in the Coastal Marine Laboratory the Hong Kong University of Science and Technology (HKUST). Cyprids were stored for 2 days at 8° C. (aged cyprids) prior to being used in the bioassays. Ten μl of each test sample dissolved in dimethyl sulfoxide (DMSO) were transferred into a well in 24-well polystyrene plate after the addition of 1 ml of FSW. The control wells contained 1 ml of FSW and 10 μl of DMSO. About 15 cyprids were added in each well with triplicate samples being tested.

Hydroides elegans larvae = assay: Larval settlement bioassay, Hydroides elegans competent larvae; assay type: in vivo
Protocol: The 24-well plates were incubated at 28° C. for 24 h under a 15 h light/9 h dark photoperiod. The percentage of larval settlement and larval mortality was determined by counting the settled, live individuals under a dissecting microscope and expressing the result as a proportion of the total number of larvae in the well.

Bugula neritina larvae = assay: Larval settlement bioassay, Bugula neritina

Structure (SMILES) | LC50/EC50 [1] | LC50/EC50 (Hydroides elegans larvae) | LC50/EC50 ([1]; listed as compound 5) | LC50/EC50 (Hydroides elegans larvae; listed as compound 5) | LC50/EC50 (Bugula neritina larvae) | LC50/EC50 ([1]; listed as compound 6) | LC50/EC50 (Hydroides elegans larvae; listed as compound 6) | LC50/EC50 (Bugula neritina larvae; listed as compound 6)
CC(=O)C(C)CCCCCC1C=CC(=O)O1 (stereo not drawn) [Compound 3] | >8.5 | >17.9 | – | – | – | – | – | –
CC(C)(O)CCCCCC1C=CC(=O)O1 (stereo not drawn) [Compound 4] | – | >16.7 | – | – | – | – | – | –
CC(CCCCCC1C=CC(=O)O1)C(C)OC1CCCCO1 (stereo not drawn) [Compound 5] | >27.8 | >15.6 | > 27.8 | > 10.5 | > 15.6 | – | – | –
CC(O)C(C)CCCCCC1C=CC(=O)O1 (stereo not drawn) [Compound 2] | >8.8 | >22.7 | – | – | – | – | – | –
CCC(C)(O)CCCCCC1C=CC(=O)O1 (stereo not drawn) [Compound 1] | >5.9 | >8.3 | – | – | – | – | – | –
CCCCCCCCC1C=CC(=O)O1 (stereo not drawn) [Compound 6, 5-octylfuran-2-one] | >97 | >119 | – | – | >250 | > 97 | > 250 | > 119

Where two headings read alike, the source gives them in different places.
